Results are given in words; binding and its absence hold for the method and conditions named. For part of these data: Binding seen in cells or lysates may run through a third protein. Some entries that bind do so weakly or less than the wild type. One block for each substance: values may come before it.
Experiments:
His-GINS4 fusion protein = His-GINS4 fusion protein (UniProt Q9BRT9); assay: pull-down; His-GINS4 rotated with GST, GST-Rac1 or GST-CDC42 at 4 °C for 4 h, then Ni-NTA beads for 4 h at 4 °C; three washes; western blot with anti-GST antibody; both purified
[1] = molecular target: Flag-GINS4 (in 293T cells) (UniProt Q9BRT9); assay: co-IP; 293T cells transfected with Flag-GINS4 or Flag-vector for 24 h; lysis buffer 20 mM Tris-HCl pH 8, 137 mM NaCl, 0.5% Triton X-100, 2 mM EDTA; 500 μg protein on anti-FLAG-M2 agarose; western blot
[2] = molecular target: Flag-GINS4 (in MGC-803 cells) (UniProt Q9BRT9); assay: co-IP; MGC-803 cells; Flag-GINS4 immunoprecipitated, endogenous Rac1 and CDC42 detected (Figure S3A)

The chains behind the UniProt entries cited, without tags or fusion partners.
UniProt P60953: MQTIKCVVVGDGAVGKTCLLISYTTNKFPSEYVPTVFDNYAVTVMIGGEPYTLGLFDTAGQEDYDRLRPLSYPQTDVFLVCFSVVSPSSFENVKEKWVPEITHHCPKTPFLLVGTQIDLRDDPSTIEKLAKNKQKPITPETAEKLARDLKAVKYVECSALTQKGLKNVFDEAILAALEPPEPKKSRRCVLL

binding (His-GINS4 fusion protein): binds
Substance: GST-CDC42 (from UniProt P60953 1-191)

binding [1]: binds
Substance: endogenous CDC42 (293T cells) (from UniProt P60953 1-191)

binding [2]: binds
Substance: endogenous CDC42 (MGC-803 cells) (from UniProt P60953 1-191)

From article PMC6857050
